PubChem BioAssay AID602196, INSERM, 2012
The deposit covers about 23,000 reagents; this is an unselected part. Of all reagents, 455 (2%) are marked active. 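Active includes both protection and sensitisation; some change values fall well beyond the stated -50 to +50 range.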 A number with no mark means an inactive call. No sequences are given here. Not given: the amount of reagent.

Test: 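Modifiers of cisplatin sensitivity in A549 cells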
Cell system: human A549 lung cancer cells
Knock-down reagent: siRNA pair against human genes
Time to read-out: 48 h transfection before cisplatin; time from cisplatin to read-out not stated
Challenge: cisplatin at a dose killing half of control-siRNA cells; exact dose and duration not given
Measured: 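Shift in cisplatin death relative to control siRNA, from -50 (all cells die) to +50 (no cells die); siRNAs harmful on their own scored 0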
Reading the numbers: two-siRNA summed score (-2 to +2): higher = both siRNAs protect from cisplatin killing; -2 means both sensitise; mean protection from cisplatin (shift in death) and protection from cisplatin (shift in death), siRNA C and protection from cisplatin (shift in death), siRNA D: higher = protection from cisplatin killing
Hit rule: 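Each siRNA scores 0 if harmful alone by LDH or WST-1, otherwise +1 if it reduces and -1 if it increases cisplatin killing; a gene is active when both siRNAs agree (sum +2 or -2)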
Calls: active = both siRNAs shift cisplatin killing the same way; inactive = no consistent shift, or siRNA harmful alone

Gene	two-siRNA summed score (-2 to +2)	mean protection from cisplatin (shift in death) (%)	protection from cisplatin (shift in death), siRNA C (%)	protection from cisplatin (shift in death), siRNA D (%)
CTNNA1 (catenin alpha 1)	1	13.2	25.1	1.3
FLJ34433	2 (active)	27.5	20.7	34.3
TMC5 (transmembrane channel like 5)	-1	-6.1	13.7	-25.8
KIAA1970	0	27.2	51.9	2.6
TASL (TLR adaptor interacting with endolysosomal SLC15A4)	-1	-0.4	-19.4	18.6
TRPM3	0	11.2	19.9	2.5
FAM76B (family with sequence similarity 76 member B)	0	2.1	9.4	-5.3
LOC440079	0	-3.7	-2.1	-5.4
KIRREL2 (kirre like nephrin family adhesion molecule 2)	0	9.3	7.4	11.2
EFNA1 (ephrin A1)	0	-0.8	5.6	-7.2
SLC38A2	0	8.6	11.6	5.6
ZNF568 (zinc finger protein 568)	0	4.2	5.2	3.3
RNASE8 (ribonuclease A family member 8)	0	11.9	15.4	8.4
RASL10A (RAS like family 10 member A)	1	4.5	-6.7	15.8
LTBP3 (latent transforming growth factor beta binding protein 3)	2 (active)	24.5	18.5	30.5
FGGY (FGGY carbohydrate kinase domain containing)	1	11.3	20.8	1.8
GPC5 (glypican 5)	-1	-13.4	-12.2	-14.6
SLC16A6P1 (SLC16A6 pseudogene 1)	0	-0.1	3.3	-3.5
LOC388689	-1	3.6	29.7	-22.4
DUBR (DPPA2 upstream binding RNA)	1	13.2	8.8	17.6
CD160 (CD160 molecule)	-1	-28	-29.3	-26.7
LOC388022 (retired record)	0	-0.7	-1.6	0.3
VPS54 (VPS54 subunit of GARP complex)	0	11.9	-0.2	24
